Results are given in words; binding and its absence hold for the method and conditions named. Binding seen in cells or lysates may run through a third protein. Some binding calls cover weakened binding; strength is not graded here. For part of these data: Tags and fused reporters may be left off the sequences shown.
Key:
[1] = molecular target: KDM5C, endogenous in MCF7 (human (endogenous in MCF7)) (UniProt P41229); assay: co-IP; endogenous proteins, nuclear extracts from MCF7 cells; IP with anti-KDM5C antibody (control IgG), protein A/G magnetic beads, 250 mM NaCl, 0.5% NP-40; immunoblotting
[2] = molecular target: T1, HA-tagged KDM5C T1, aa (1–650) (UniProt P41229); assay: co-IP; transfected HEK293T cells; IP with anti-Flag M2 affinity gel or anti-HA agarose, 4 °C overnight, 150 mM KCl, 0.1% NP-40; immunoblotting
T1 sequence: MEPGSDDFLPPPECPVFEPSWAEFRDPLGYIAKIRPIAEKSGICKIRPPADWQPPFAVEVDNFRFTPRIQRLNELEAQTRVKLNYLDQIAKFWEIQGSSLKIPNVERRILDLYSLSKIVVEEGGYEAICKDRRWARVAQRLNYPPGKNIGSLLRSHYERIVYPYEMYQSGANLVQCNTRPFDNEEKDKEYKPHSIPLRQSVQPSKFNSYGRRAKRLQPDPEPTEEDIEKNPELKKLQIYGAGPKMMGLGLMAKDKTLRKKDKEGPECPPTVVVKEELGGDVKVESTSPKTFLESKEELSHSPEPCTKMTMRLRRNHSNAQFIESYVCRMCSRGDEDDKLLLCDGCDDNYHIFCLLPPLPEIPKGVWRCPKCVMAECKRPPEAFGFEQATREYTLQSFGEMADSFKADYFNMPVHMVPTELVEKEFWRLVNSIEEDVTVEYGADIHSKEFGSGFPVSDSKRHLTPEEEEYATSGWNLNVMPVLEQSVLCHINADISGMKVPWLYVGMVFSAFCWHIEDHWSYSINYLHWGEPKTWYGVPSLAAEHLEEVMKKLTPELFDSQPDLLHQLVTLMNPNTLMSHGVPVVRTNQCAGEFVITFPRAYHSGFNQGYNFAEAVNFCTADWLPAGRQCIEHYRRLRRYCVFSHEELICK

Sequences of proteins named here, by UniProt entry; tags and fusion partners are left off. A change or cut given only in a name is not applied to a line headed by its entry.
UniProt P50750: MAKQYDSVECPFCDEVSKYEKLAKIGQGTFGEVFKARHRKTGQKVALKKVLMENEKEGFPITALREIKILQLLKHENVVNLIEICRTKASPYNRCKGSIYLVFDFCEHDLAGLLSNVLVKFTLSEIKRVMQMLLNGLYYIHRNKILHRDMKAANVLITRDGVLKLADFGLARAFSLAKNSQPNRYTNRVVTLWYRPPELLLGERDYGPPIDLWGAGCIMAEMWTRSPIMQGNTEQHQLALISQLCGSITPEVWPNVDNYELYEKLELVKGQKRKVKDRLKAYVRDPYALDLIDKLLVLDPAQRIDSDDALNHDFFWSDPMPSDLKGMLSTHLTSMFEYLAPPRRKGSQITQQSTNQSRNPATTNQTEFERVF
UniProt P03372: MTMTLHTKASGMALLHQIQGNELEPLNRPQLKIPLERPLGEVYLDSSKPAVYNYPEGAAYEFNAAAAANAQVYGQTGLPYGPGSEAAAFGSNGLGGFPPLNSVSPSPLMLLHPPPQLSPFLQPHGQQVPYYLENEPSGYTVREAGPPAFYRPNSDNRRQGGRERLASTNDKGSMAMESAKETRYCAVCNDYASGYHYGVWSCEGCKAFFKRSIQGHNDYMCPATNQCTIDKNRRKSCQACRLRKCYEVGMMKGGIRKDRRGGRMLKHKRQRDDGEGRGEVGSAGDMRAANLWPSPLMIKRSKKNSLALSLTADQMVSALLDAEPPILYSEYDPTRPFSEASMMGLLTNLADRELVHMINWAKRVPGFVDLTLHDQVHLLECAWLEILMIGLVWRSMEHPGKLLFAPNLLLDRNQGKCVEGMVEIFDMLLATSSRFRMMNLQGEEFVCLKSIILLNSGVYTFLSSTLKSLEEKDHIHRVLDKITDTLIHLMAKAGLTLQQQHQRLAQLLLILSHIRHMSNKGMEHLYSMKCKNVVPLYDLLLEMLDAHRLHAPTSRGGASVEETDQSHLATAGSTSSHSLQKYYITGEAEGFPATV
UniProt Q09472: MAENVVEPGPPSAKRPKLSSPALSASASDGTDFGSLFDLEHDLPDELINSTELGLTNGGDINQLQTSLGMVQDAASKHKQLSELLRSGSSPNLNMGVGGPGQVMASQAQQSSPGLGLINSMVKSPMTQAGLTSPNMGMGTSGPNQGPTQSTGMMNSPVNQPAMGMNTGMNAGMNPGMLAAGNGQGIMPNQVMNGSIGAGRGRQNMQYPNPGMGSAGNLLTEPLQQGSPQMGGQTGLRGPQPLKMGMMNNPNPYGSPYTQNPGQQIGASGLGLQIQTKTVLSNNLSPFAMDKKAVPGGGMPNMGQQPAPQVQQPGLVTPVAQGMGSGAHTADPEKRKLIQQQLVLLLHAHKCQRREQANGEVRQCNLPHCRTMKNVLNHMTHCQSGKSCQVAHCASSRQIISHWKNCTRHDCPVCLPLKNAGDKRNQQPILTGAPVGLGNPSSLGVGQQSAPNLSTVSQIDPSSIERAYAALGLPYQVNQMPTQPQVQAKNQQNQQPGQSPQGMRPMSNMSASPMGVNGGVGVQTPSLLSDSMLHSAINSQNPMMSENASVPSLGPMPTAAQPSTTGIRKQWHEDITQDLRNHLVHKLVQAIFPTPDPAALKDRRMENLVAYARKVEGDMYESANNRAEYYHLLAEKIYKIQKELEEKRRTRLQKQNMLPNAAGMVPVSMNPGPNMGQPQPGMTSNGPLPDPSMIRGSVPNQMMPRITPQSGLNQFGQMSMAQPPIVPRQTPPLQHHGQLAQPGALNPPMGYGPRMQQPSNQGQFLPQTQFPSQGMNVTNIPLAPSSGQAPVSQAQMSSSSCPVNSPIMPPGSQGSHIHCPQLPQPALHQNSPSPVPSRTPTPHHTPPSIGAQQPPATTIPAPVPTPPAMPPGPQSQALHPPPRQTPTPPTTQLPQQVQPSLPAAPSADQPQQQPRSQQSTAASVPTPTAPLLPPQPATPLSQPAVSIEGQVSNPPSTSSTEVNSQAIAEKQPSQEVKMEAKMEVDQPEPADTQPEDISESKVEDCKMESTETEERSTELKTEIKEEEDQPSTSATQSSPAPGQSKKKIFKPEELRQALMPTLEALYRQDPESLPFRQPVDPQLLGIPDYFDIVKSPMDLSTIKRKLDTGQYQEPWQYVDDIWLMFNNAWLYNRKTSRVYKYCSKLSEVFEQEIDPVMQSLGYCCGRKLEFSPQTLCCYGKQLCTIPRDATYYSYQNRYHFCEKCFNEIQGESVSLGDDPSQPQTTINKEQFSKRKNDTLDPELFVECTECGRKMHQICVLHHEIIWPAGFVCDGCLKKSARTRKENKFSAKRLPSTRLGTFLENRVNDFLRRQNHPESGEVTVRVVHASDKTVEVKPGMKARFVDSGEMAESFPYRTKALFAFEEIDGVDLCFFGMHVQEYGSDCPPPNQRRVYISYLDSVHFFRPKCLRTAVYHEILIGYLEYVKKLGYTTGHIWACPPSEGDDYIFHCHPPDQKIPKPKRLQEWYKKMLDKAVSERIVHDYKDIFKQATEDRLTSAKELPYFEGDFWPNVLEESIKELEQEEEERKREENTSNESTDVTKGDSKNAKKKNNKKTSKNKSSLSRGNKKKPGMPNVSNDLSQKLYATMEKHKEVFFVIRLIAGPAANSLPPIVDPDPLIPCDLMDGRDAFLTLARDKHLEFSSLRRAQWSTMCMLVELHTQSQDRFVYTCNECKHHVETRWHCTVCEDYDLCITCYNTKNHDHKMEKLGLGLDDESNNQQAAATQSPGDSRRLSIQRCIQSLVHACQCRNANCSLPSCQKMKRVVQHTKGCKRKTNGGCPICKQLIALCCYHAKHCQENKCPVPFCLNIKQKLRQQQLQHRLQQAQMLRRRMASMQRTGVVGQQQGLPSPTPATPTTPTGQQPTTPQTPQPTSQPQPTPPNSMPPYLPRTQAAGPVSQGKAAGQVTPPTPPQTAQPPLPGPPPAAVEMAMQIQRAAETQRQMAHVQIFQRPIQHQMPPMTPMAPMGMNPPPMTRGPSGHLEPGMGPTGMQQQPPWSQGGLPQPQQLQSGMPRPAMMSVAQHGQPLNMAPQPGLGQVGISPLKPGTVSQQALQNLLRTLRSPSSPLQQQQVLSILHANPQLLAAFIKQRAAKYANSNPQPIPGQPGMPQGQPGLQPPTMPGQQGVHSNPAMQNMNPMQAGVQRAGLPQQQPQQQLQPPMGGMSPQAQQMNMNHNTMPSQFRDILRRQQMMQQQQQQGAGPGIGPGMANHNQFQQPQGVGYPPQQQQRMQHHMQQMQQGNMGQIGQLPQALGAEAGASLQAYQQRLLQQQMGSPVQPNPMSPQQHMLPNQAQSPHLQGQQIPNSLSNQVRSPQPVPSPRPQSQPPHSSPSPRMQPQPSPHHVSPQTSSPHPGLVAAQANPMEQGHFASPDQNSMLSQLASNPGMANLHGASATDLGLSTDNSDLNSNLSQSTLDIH

[3] = molecular target: T2, HA-tagged KDM5C T5, aa (460–640) (UniProt P41229); assay: as above
T2 sequence: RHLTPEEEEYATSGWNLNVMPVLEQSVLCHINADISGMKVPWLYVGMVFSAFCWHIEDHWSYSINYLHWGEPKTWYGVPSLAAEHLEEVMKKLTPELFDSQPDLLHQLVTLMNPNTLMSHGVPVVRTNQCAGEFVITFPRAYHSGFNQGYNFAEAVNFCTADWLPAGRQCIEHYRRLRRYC

[4] = molecular target: KDM5C (immunoprecipitation of Figure S5F) (UniProt P41229); assay: co-IP; immunoprecipitation (Figure S5F); cells, antibodies and bait not given
[5] = molecular target: T3, ZMYND8 (immunoprecipitation of Figure S5F) (UniProt Q9ULU4); assay: as above
T3 sequence: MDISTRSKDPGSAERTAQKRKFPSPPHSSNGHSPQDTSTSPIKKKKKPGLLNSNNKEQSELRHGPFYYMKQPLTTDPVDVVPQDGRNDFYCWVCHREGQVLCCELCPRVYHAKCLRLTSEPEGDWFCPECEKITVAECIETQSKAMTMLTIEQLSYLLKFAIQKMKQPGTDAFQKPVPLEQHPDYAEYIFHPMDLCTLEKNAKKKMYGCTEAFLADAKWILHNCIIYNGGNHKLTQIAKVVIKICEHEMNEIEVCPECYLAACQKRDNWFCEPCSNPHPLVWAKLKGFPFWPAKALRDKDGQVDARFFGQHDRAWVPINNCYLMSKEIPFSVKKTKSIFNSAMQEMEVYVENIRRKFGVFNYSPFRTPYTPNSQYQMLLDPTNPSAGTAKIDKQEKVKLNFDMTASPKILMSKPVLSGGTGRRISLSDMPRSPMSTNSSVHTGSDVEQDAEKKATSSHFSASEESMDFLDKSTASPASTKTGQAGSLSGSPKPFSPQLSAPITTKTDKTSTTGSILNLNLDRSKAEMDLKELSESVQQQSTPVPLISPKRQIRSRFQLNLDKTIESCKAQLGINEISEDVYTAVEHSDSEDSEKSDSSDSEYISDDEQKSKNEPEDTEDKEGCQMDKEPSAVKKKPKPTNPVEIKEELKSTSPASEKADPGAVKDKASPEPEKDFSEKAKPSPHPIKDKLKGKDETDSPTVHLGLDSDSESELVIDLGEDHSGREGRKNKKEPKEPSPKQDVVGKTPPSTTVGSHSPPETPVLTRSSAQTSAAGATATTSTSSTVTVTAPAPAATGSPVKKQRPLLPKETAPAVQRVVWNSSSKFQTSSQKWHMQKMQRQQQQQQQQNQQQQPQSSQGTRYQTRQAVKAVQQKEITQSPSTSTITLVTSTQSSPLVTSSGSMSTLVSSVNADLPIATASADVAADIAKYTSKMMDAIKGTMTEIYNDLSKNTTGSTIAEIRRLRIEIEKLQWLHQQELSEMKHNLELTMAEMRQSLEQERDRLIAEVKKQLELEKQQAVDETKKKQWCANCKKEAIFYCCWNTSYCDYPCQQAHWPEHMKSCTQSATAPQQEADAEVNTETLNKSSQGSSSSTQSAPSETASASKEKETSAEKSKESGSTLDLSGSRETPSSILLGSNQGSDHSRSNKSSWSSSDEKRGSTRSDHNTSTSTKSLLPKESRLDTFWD

[6] = molecular target: KDM5C, endogenous in MCF7 (human (endogenous in MCF7)) (UniProt P41229); assay: co-IP; endogenous proteins, MCF7 cells treated with estrogen (E2, 10^-7 M, 1 h); IP with anti-KDM5C antibody; immunoblotting

With “CDK9, endogenous in MCF7 (from UniProt P50750 1-372)” the binding [1] was “binds”.
“Flag-tagged ERα, full length (from UniProt P03372 1-595) (receptor)” was tested, and the binding [2] was “binds” and the binding [3] was “binds”.
For “P300 (immunoprecipitation of Figure S5F) (from UniProt Q09472 1-2414) (enzyme)”, the binding [4] was “binds” and the binding [5] was “binds”.
“estrogen receptor alpha, endogenous in MCF7 (from UniProt P03372 1-595)” was tested, and the binding [6] was “binds”.
